Article PMC10289663
No constants are given. Whether binding was seen depends on the method and setting. Binding seen in cells or lysates may run through a third protein. Values belong to the molecule of their own block, whether it stands above or below them.

Chains of the proteins cited; added tags and fusions are not shown.
UniProt Q9Y6W5: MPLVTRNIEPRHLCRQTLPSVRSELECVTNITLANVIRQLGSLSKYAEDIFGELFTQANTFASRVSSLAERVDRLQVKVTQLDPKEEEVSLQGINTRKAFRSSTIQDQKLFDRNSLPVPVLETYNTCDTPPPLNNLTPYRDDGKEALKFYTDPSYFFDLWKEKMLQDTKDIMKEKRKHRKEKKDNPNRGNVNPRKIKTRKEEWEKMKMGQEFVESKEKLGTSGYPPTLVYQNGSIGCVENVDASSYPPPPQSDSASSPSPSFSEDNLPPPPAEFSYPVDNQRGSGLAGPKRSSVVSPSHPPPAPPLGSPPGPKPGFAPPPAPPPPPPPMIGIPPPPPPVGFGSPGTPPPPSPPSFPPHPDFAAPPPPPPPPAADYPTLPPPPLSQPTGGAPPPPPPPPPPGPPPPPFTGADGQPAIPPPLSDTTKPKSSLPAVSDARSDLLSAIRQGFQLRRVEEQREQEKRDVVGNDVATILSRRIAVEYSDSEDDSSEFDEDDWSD

Molecular target: T1, GDE3 (glycerophosphodiester phosphodiesterase 3), as used in the coimmunoprecipitations (UniProt Q9ESM6)
T1 sequence: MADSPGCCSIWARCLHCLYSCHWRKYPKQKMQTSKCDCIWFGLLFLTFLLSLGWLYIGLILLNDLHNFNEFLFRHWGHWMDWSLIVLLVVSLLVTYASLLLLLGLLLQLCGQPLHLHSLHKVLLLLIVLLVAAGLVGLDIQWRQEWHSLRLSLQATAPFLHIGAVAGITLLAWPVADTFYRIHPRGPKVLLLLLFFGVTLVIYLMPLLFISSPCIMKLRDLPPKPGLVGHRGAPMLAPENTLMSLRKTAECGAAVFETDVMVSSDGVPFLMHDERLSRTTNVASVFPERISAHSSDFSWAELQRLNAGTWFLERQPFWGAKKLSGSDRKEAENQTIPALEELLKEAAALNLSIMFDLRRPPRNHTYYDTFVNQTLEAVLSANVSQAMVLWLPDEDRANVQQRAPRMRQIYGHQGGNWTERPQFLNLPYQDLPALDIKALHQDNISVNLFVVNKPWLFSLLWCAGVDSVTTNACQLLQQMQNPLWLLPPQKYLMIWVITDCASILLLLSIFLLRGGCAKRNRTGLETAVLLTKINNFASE
Experiment: co-IP; transfected HEK293T cells or cultured astrocytes; methods of the coimmunoprecipitation not given in the text shown

- binding: no binding
Molecule: WAVE2, as used in the coimmunoprecipitations (from UniProt Q9Y6W5 1-498)

- binding: no binding
B1: WAVE3 (Wiskott-Aldrich syndrome protein family member 3), as used in the coimmunoprecipitations (protein, UniProt Q8VHI6 1-501)
chain: MPLVKRNIEPRHLCRGALPEGVTSELECVTNSTLAAIIRQLSSLSKHAEDIFGELFNEANNFYIRANSLQDRIDRLAVKVTQLDSTVEEVSLQDINMKKAFKSSTIQDQQVVSKNSIPNPVADIYNQSDKPPPLSILTPYRDDKKDGLKFYTDPSYFFDLWKEKMLQDTEDKRKEKRRQKEQKRVDGTTREVKKVRKARNRRQEWNMMAYDKELRPDNRLSQSVHHGASSEGSLSPDTRSHTSDVTDYSYPATPNHALQAQPATPSYTAGDAPLHGTTNQGAEHEYRPSSASARHMALNRPQQPPPPPPPQAPEGSQASTSVAPADYGMLPAQIIEYYSPSGPPPPPPPPMIPSAQTAFVSPLQMPTQPPFPASAVSTYPTPPHQPSTGLLATAPPPPGPPPPPPGPPGPSSLSSSPMHGPPVAEAKRPEPAQPPISDARSDLLAAIRMGIQLKKVQEQREQEAKREPVGNDVATILSRRIAVEYSDSDDDSEFDENDWSD
